# The supplement of paper PMC10849652
# Sequences of proteins named here, by UniProt entry; tags and fusion partners are left off. A change or cut given only in a name is not applied to a line headed by its entry.
# UniProt Q92575: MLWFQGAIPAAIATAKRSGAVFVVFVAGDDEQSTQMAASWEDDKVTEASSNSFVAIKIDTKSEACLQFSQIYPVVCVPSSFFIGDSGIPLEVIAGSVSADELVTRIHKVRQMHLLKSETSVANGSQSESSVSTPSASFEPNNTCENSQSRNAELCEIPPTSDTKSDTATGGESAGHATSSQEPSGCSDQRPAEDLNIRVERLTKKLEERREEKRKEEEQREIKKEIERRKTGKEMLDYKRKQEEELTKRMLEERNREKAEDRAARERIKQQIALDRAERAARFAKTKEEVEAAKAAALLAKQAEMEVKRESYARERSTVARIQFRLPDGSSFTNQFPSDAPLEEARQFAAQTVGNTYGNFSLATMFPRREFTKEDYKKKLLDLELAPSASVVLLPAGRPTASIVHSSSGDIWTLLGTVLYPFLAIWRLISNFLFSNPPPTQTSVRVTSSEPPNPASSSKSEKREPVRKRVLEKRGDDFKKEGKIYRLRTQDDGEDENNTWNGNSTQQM
# UniProt A6NIH7: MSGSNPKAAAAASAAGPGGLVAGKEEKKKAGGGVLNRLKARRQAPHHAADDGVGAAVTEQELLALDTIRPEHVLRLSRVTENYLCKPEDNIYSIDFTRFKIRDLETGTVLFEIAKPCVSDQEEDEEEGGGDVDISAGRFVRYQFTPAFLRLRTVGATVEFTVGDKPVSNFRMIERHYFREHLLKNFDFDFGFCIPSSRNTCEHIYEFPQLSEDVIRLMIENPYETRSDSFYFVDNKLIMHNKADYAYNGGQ
# UniProt Q9H1C4: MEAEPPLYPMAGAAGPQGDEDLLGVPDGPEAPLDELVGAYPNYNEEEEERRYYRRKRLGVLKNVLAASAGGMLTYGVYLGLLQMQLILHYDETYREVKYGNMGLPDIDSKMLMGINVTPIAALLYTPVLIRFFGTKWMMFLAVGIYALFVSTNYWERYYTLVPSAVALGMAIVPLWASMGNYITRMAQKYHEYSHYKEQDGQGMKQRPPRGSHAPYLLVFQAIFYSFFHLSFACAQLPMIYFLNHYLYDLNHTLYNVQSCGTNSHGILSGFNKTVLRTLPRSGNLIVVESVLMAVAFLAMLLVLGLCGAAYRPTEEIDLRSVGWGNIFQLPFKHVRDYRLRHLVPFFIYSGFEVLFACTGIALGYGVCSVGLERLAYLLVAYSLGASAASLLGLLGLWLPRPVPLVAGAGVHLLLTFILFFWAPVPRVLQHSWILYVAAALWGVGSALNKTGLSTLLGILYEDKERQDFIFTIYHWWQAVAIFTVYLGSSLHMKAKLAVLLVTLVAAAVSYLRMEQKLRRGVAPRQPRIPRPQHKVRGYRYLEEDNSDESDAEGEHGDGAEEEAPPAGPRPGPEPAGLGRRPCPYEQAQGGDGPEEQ
# UniProt Q68DE3: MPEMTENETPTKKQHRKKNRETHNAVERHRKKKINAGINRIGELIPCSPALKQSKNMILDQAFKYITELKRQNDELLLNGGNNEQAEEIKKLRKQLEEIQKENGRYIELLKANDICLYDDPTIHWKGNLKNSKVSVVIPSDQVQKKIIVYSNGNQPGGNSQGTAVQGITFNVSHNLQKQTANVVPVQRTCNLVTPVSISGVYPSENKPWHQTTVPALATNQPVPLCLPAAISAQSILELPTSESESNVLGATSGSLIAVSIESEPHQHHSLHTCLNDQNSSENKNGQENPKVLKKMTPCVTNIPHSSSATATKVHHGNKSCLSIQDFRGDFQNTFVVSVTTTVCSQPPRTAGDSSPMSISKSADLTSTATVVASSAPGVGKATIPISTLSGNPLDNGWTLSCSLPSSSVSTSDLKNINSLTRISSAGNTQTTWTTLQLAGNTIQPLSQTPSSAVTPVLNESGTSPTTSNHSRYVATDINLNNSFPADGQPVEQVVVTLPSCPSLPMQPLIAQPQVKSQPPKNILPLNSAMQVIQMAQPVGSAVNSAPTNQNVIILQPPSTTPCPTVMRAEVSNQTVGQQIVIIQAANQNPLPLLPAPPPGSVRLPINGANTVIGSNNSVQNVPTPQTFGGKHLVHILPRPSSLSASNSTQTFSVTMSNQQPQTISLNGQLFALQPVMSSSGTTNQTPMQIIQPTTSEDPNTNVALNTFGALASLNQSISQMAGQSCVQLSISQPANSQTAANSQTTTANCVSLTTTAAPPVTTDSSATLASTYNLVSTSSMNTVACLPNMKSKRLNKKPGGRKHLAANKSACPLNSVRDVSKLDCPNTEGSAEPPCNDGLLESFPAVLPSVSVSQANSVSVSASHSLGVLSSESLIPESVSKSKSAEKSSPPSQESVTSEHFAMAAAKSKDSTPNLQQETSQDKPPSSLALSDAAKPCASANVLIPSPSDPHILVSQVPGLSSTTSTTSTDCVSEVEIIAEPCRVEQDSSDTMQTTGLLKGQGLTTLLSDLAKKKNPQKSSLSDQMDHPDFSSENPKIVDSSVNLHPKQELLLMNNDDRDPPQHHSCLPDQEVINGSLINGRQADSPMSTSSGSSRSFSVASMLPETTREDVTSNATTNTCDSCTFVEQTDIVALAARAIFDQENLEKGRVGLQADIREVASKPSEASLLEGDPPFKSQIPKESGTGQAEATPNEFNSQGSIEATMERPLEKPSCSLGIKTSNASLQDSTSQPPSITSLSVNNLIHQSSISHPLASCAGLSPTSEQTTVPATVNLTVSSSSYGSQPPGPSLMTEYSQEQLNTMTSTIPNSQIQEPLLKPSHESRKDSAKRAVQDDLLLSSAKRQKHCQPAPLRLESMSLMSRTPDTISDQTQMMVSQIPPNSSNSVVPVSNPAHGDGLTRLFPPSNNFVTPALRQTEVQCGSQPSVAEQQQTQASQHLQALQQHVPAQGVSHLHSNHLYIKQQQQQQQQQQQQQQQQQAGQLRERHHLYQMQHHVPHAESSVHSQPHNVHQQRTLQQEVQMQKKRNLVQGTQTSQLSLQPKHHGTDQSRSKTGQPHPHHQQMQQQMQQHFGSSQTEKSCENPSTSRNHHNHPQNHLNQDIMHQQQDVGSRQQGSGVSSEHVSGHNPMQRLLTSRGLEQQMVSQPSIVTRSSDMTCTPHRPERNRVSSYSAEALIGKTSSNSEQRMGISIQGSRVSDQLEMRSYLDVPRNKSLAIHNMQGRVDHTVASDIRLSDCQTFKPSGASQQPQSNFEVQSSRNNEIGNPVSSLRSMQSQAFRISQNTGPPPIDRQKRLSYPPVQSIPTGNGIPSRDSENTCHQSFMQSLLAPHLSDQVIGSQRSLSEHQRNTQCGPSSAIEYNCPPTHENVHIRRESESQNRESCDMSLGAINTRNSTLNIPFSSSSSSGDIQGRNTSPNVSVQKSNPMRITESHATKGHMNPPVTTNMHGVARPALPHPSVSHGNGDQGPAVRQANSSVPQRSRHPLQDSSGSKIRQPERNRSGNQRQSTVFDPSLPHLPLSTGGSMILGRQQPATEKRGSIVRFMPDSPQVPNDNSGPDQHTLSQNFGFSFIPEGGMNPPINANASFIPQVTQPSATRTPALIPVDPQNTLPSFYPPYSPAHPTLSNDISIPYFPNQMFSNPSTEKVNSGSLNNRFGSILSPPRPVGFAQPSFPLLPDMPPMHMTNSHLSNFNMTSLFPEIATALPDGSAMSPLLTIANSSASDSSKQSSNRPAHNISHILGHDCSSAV
# UniProt O94763, whole entry, looked up: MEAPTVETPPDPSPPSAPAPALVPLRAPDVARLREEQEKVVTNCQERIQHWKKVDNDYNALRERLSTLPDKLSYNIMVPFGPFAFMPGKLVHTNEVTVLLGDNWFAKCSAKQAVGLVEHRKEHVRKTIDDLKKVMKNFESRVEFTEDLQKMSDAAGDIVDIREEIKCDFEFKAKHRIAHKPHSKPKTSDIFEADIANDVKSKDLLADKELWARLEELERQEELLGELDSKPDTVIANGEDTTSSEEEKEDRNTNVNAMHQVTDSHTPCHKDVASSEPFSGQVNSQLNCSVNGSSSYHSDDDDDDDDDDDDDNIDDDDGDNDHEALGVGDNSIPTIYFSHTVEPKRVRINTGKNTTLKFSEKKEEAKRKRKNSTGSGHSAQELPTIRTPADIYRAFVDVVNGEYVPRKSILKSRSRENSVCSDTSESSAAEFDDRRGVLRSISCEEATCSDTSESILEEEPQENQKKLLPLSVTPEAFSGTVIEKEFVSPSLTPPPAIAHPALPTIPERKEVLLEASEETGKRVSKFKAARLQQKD
# UniProt Q9NVA1: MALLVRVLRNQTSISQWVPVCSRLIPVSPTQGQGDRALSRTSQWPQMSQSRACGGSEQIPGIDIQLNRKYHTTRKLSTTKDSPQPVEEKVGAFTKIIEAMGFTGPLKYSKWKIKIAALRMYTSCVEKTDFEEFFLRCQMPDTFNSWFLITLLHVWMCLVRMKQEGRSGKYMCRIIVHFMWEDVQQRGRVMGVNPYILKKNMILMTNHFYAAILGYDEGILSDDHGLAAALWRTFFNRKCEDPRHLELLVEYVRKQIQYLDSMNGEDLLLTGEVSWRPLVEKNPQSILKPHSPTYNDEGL
# UniProt Q9Y5K5, whole entry, looked up: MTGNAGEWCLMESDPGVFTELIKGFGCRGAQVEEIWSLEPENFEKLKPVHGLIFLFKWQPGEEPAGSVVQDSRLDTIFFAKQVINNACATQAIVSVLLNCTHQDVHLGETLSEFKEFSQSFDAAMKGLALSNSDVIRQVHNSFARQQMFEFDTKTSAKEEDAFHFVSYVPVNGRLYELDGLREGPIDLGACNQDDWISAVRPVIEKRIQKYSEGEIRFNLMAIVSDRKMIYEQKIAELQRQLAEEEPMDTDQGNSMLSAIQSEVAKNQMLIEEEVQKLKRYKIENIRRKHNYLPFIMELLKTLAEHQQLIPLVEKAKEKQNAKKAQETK
# UniProt Q8IWV8: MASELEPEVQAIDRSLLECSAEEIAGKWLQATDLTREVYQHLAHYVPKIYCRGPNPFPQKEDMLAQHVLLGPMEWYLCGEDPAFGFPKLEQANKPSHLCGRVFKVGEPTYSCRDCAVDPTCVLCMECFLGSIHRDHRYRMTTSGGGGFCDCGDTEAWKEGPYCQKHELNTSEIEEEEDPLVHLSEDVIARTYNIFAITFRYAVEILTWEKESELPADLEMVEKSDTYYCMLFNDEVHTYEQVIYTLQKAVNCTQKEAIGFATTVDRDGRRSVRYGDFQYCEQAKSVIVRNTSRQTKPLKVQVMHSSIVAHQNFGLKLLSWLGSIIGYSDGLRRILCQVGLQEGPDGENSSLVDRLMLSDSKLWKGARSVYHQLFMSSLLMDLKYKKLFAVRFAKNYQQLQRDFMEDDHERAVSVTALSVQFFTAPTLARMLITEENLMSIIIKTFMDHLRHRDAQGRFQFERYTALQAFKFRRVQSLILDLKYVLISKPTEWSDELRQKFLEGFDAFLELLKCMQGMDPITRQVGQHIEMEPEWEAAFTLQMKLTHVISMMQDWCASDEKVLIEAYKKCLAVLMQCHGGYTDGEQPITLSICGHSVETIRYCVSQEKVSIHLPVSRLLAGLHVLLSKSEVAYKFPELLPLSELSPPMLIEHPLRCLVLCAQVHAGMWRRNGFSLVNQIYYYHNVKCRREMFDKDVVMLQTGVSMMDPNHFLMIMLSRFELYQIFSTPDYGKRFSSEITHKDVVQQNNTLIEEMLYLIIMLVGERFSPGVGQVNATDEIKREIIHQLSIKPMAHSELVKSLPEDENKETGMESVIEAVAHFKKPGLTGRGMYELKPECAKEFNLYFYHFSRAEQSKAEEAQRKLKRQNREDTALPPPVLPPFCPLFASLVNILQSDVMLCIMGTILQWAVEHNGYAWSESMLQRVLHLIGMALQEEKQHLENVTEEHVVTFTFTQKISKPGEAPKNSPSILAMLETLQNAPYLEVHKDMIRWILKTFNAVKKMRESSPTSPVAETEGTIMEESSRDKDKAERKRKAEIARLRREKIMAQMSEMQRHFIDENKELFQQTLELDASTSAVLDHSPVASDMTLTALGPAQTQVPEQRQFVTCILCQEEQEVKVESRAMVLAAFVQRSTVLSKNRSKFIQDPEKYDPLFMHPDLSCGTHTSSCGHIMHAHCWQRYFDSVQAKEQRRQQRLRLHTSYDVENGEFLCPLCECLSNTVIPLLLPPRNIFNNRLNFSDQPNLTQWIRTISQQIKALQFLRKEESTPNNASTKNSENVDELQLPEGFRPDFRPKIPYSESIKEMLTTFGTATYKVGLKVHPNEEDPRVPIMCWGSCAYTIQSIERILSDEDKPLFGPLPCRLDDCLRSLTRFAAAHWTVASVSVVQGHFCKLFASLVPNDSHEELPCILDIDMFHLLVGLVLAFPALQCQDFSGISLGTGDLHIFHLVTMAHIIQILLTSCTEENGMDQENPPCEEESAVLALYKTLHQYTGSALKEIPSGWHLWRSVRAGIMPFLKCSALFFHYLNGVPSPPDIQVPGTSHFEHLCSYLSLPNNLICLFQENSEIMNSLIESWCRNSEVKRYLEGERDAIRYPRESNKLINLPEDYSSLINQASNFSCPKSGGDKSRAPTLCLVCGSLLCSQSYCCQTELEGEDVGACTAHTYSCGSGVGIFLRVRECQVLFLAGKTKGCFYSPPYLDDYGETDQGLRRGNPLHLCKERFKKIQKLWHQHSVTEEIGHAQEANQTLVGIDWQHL
# This is one part of the list.
# Experiments:
# Assay in all cases: log2 fold change, soluble protein after heating vs DMSO (PISA); higher = thermal stabilisation; K562 cells, 10 uM, 30 min; active = over 0.2 and 3.5 SD of the protein, either way, in both replicates (recomputed)
# [1] = compound: CC1=C(C=C(C=C1)NC(=O)C2=CC(=CC=C2)C(C)(C)C#N)NC3=CC4=C(C=C3)N=CN(C4=O)C
# Outline: (§1)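 Quantification of soluble protein used TMTpro 16plex LC-MS/MS, with channel sums equalised. Samples were the supernatant after 21,000xg for 90 min of pooled aliquots from K562 cells (2×10^6 cells/mL) treated with 10 μM compound for 30 min, heated for 3 min over 48°C-58°C, and extracted in PBS with 0.5% NP-40 at 4°C. Values, from duplicates, describe thermal stability against control samples on a log2 fold-change scale.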
# [2] = compound: CC1=C(C=C(C=C1)NC(=O)C2=CC(=CC=C2)N(C)C)NC(=O)C3=CC=C(C=C3)O
# Outline: as §1
# [3] = compound: CC1=CC=C(C=C1)SC2=C3C=C(SC3=CN=C2)C(=O)N
# Outline: as §1
# [4] = compound: CC1=NC(=CC=C1)C2=C(N=C(N2)C(C)(C)C)C3=CC4=NC=CN=C4C=C3
# Outline: as §1
# [5] = compound: CCCCN(Cc1ccc(C(=O)NO)cc1)C(=O)Nc1ccccc1 [Nexturastat A]
# Outline: as §1
# [6] = compound: CCCS(=O)(=O)Nc1ccc(F)c(C(=O)c2c[nH]c3ncc(-c4ccc(Cl)cc4)cc23)c1F [vemurafenib]
# Outline: as §1
# [7] = compound: CCCS(=O)(=O)Nc1ccc(F)c(C(=O)c2c[nH]c3ncc(Cl)cc23)c1F
# Outline: as §1
# [8] = compound: CCCc1cc(C)[nH]c(=O)c1CNC(=O)c1cc(-c2ccnc(N3CCN(C)CC3)c2)cc2c1cnn2C(C)C
# Outline: as §1
# [9] = compound: CCN(CC)Cc1ccc2cc(COC(=O)Nc3ccc(C(=O)NO)cc3)ccc2c1 [givinostat]
# Outline: as §1
# [10] = compound: CCN(CCCOc1ccc2c(Nc3cc(CC(=O)Nc4cccc(F)c4)[nH]n3)ncnc2c1)CCOP(=O)(O)O [barasertib]
# Outline: as §1
Target,log2 fold change [1],log2 fold change [2],log2 fold change [3],log2 fold change [4],log2 fold change [5],log2 fold change [6],log2 fold change [7],log2 fold change [8],log2 fold change [9],log2 fold change [10]
UBXN4 (UniProt Q92575),inactive: 0.017,inactive: -0.013,inactive: 0.027,inactive: 0.02,inactive: -0.072,inactive: -0.007,inactive: 0.074,inactive: -0.083,inactive: 0.001,inactive: 0.056
USP6NL isoform 2 (UniProt Q92738),inactive: 0.003,inactive: -0.056,inactive: -0.159,inactive: -0.175,inactive: 0.022,inactive: 0.105,inactive: 0.026,,inactive: 0.104,
UNC119B (UniProt A6NIH7),inactive: 0.293,inactive: -0.057,inactive: 0.241,inactive: -0.017,,inactive: 0.023,inactive: -0.047,inactive: -0.108,inactive: 0.12,inactive: -0.029
VAMP7 (UniProt P51809),inactive: -0.014,inactive: 0.011,inactive: 0.053,inactive: 0.005,inactive: -0.069,inactive: 0.022,inactive: -0.01,inactive: -0.016,inactive: 0.011,inactive: 0.017
UNC93B1 (UniProt Q9H1C4),inactive: 0.226,inactive: 0.003,inactive: -0.082,inactive: -0.035,inactive: -0.094,,inactive: 0.091,inactive: -0.096,inactive: 0.015,inactive: -0.01
VAPA isoform 2 (UniProt Q9P0L0),inactive: -0.023,inactive: 0,inactive: -0.011,inactive: 0.022,inactive: 0.059,inactive: -0.006,inactive: -0.007,inactive: -0.008,inactive: 0.028,inactive: 0
VAMP8 (UniProt Q9BV40),inactive: -0.02,inactive: 0.018,inactive: 0.021,inactive: 0.016,inactive: -0.024,inactive: 0.014,inactive: -0.099,inactive: -0.021,inactive: -0.006,inactive: 0.02
VBP1 (UniProt P61758),inactive: -0.035,inactive: 0.035,inactive: 0.014,inactive: -0.003,inactive: -0.082,inactive: -0.019,inactive: -0.011,inactive: -0.017,inactive: -0.014,inactive: 0.008
UQCRC2 (UniProt P22695),inactive: -0.026,inactive: 0.016,inactive: 0.023,inactive: 0.032,inactive: -0.027,inactive: 0.025,inactive: 0.03,inactive: 0.002,inactive: 0.008,inactive: -0.009
UBE4A isoform 2 (UniProt Q14139),inactive: -0.064,inactive: -0.058,inactive: -0.029,inactive: 0.01,inactive: 0.061,inactive: 0.048,inactive: 0.097,inactive: 0.021,inactive: 0.073,inactive: 0.065
UHRF1BP1L (UniProt A0JNW5),inactive: -0.079,inactive: -0.031,inactive: -0.038,inactive: -0.032,inactive: -0.054,inactive: -0.039,inactive: -0.033,inactive: 0.027,inactive: -0.033,inactive: 0
ULK3 isoform 4 (UniProt Q6PHR2),inactive: 0.109,inactive: 0.223,inactive: 0.021,inactive: -0.074,inactive: -0.048,,inactive: 0.097,,,inactive: 0.107
USP32 (UniProt Q8NFA0),inactive: -0.116,inactive: -0.082,inactive: 0.07,inactive: 0.033,inactive: -0.07,,inactive: 0.007,,inactive: 0.434,
USF3 (UniProt Q68DE3),inactive: -0.113,inactive: 0.048,inactive: -0.378,inactive: -0.223,inactive: 0.196,inactive: -0.02,inactive: -0.394,inactive: -0.445,,inactive: 0.073
URI1 (UniProt O94763),inactive: 0.023,inactive: 0.062,inactive: -0.041,inactive: 0.021,inactive: -0.026,inactive: 0.035,inactive: -0.073,inactive: -0.028,inactive: 0.017,inactive: -0.003
UQCC1 (UniProt Q9NVA1),inactive: -0.001,inactive: 0.028,inactive: -0.012,inactive: 0.039,inactive: 0.123,inactive: -0.009,inactive: 0.025,inactive: -0.046,inactive: -0.025,inactive: 0

Target,log2 fold change [1],log2 fold change [2],log2 fold change [3],log2 fold change [4],log2 fold change [5],log2 fold change [6],log2 fold change [7],log2 fold change [8],log2 fold change [9],log2 fold change [10]
VAC14 (UniProt Q08AM6),inactive: 0.026,inactive: 0.016,inactive: -0.003,inactive: 0.048,inactive: -0.039,inactive: -0.006,inactive: 0.021,inactive: -0.042,inactive: -0.016,inactive: 0.014
UCHL5 isoform 3 (UniProt Q9Y5K5),inactive: -0.09,inactive: -0.145,inactive: 0.048,inactive: -0.213,inactive: 0.07,inactive: -0.02,inactive: 0.243,inactive: 0.047,inactive: 0.056,inactive: 0.048
URGCP (UniProt Q8TCY9),inactive: -0.031,inactive: -0.002,inactive: 0.029,inactive: 0.097,inactive: -0.035,inactive: -0.002,inactive: 0.006,,inactive: 0.009,inactive: 0
UBR2 (UniProt Q8IWV8),inactive: 0.079,inactive: -0.08,inactive: 0.048,inactive: -0.03,inactive: 0.078,inactive: 0.029,inactive: 0.037,inactive: -0.038,inactive: 0.192,inactive: 0.046
UQCRFS1 (UniProt P47985),inactive: 0.04,inactive: -0.012,inactive: 0.007,inactive: 0.027,inactive: -0.105,inactive: 0.006,inactive: -0.041,inactive: 0.174,inactive: -0.017,inactive: -0.017
USP13 (UniProt Q92995),inactive: 0.043,inactive: -0.029,inactive: 0.112,inactive: 0.022,,inactive: 0.02,inactive: 0.259,inactive: -0.045,inactive: 0.038,inactive: 0.042
UBXN10 (UniProt Q96LJ8),inactive: 0.007,inactive: -0.026,inactive: -0.071,inactive: 0.037,inactive: 0.107,inactive: -0.264,inactive: -0.024,inactive: -0.115,inactive: 0.059,inactive: -0.068
UFM1 (UniProt P61960),inactive: 0.031,inactive: -0.046,inactive: 0.06,inactive: 0.183,inactive: -0.04,inactive: 0.07,inactive: 0.041,inactive: -0.083,inactive: 0.087,inactive: -0.014
USF1 (UniProt P22415),inactive: -0.012,inactive: -0.048,inactive: 0.013,inactive: -0.047,inactive: -0.118,inactive: -0.032,inactive: 0.015,inactive: 0.026,inactive: -0.03,inactive: 0.294
ULBP1 (UniProt Q9BZM6),inactive: -0.088,inactive: 0.023,inactive: -0.014,,active: 0.428,inactive: 0.051,inactive: 0.053,inactive: 0,inactive: 0.028,
UBIAD1 (UniProt Q9Y5Z9),inactive: -0.03,inactive: 0.059,inactive: 0.004,inactive: 0.015,,inactive: 0.07,inactive: 0.093,inactive: 0.023,inactive: 0.043,inactive: 0.023
UTP4 (UniProt Q969X6),inactive: -0.036,inactive: 0.029,inactive: 0.009,inactive: -0.007,inactive: -0.06,inactive: -0.028,inactive: -0.021,inactive: -0.019,inactive: -0.033,inactive: -0.005
USP11 (UniProt P51784),inactive: -0.141,inactive: 0.084,inactive: 0.048,,inactive: 0.22,,inactive: 0.115,inactive: 0.189,,
UTP20 (UniProt O75691),,,inactive: 0.037,,active: 0.755,,inactive: -0.086,,inactive: 0.463,
URI1 isoform 4 (UniProt O94763),inactive: 0.134,inactive: -0.207,,inactive: -0.075,inactive: -0.344,inactive: -0.022,,,inactive: -0.043,inactive: -0.284

# Part of the list above, reduced to log2 fold change [4], log2 fold change [2] and log2 fold change [6].
Target,log2 fold change [4],log2 fold change [2],log2 fold change [6]
VAC14 (UniProt Q08AM6),inactive: 0.048,inactive: 0.016,inactive: -0.006
UCHL5 isoform 3 (UniProt Q9Y5K5),inactive: -0.213,inactive: -0.145,inactive: -0.02
